Data published in paper PMC8626589.
These are yes or no findings as the source states them, for the method shown. In cells and extracts the contact can be indirect. Some binding calls cover weakened binding; strength is not graded here.

Chains of the proteins cited; added tags and fusions are not shown.
UniProt P16220: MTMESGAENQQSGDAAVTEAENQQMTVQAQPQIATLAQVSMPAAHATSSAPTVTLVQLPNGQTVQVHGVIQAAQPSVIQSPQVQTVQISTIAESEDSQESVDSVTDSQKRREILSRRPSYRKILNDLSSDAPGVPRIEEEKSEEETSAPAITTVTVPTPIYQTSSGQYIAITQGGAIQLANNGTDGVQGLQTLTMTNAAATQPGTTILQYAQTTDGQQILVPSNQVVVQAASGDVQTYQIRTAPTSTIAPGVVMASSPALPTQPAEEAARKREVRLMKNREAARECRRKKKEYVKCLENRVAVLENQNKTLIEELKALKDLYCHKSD

Columns and labels:
[1] = target: T1, Repressor element 1-silencing transcription factor (REST), overexpressed in H4 astrocytes (UniProt Q13127); experiment: co-IP; 400 μg nuclear extract of H4 astrocytes overexpressing REST, 2 μg antibody, protein A/G-agarose overnight at 4 °C, washed with RIPA buffer, extracts treated with DNase I; Western blot; which antibody precipitated is not told
T1 sequence: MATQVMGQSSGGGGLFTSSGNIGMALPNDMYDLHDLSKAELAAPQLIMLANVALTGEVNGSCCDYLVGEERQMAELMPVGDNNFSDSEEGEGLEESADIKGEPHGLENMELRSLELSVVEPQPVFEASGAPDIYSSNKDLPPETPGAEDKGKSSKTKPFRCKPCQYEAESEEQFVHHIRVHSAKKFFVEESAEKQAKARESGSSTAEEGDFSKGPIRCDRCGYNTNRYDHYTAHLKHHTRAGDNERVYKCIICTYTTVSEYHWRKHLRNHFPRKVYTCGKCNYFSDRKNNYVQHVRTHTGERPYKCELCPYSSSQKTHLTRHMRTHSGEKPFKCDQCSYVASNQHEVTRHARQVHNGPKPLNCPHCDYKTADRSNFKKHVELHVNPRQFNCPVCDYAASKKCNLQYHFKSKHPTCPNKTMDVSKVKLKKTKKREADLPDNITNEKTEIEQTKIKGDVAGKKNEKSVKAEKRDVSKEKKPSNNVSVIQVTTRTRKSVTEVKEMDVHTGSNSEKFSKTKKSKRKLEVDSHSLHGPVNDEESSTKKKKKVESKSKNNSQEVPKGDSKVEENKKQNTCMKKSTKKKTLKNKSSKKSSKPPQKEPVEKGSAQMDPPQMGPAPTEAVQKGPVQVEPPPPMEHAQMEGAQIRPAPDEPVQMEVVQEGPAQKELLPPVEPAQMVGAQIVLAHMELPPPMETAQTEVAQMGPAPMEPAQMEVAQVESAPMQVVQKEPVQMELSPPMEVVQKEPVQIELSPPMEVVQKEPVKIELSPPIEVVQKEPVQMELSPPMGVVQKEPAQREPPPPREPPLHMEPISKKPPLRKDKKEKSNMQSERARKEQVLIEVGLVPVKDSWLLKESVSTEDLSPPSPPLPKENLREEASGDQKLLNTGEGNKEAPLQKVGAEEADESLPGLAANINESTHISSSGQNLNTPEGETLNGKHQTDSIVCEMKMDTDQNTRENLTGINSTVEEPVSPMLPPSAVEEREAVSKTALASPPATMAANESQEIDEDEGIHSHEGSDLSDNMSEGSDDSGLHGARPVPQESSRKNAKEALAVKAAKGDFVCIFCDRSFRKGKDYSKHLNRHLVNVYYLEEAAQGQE

[2] = target: T2, Repressor element 1-silencing transcription factor (REST) in H4 astrocytes (proximity ligation assay) (UniProt Q13127); experiment: proximity ligation; H4 astrocytes fixed with 4% formaldehyde; primary antibodies for REST, CBP/p300 and/or CREB (1:250, 4 °C overnight); PLA puncta in the nuclear region; also done with DN-REST, said to interfere with the complexing
T2 sequence: T1 sequence

Row | binding [1] | binding [2] | Substance
1 | binds | – | phosphorylated CREB (an active form of CREB) (from UniProt P16220 1-327)
2 | – | binds | cAMP response element-binding protein (CREB) (from UniProt P16220 1-327)
